Molecules are shown by their SMILES. Where a name gives a salt, the structure may show the parent alone. The list shows a part of the results. Plates or batches differ in their baseline, so values are only roughly comparable.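 Biofilm, quantified by the absorbance of well-retained crystal violet, is assayed using the K-12 laboratory model grown unshaken in 96-well plates. Candidate specific biofilm inhibitors were drugs that sharply lowered staining yet reduced free-floating growth by less than 70%.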

We go through 72 compounds from the supplement of paper PMC7580552.

This assay relates to Escherichia coli W3110. Description: biofilm formation (crystal violet staining) relative to untreated control; higher = more biofilm. The settings on record: 10 µM; 20-24 h; 30 °C; TB.
`CC(C(=O)O)c1ccc(C(=O)c2cccs2)cc1` (configuration not stated) [Suprofen] gave a biofilm formation of 59%.

The compound `COc1cc2ncnc(Nc3ccc(F)c(Cl)c3)c2cc1OCCCN1CCOCC1` [Gefitinib] came in with a biofilm formation of 72%.

`CCCCC[C@H](O)/C=C/[C@H]1[C@H](O)CC(=O)[C@@H]1CCCCCCC(=O)O` [Alprostadil] returned a biofilm formation of 73%.

Compound `CCN1CCC[C@H]1CNC(=O)c1c(O)c(Cl)cc(Cl)c1OC` [Raclopride] had a biofilm formation of 110%.

Regarding `CC[C@@H]([C@H](C)O)n1ncn(-c2ccc(N3CCN(c4ccc(OC[C@@H]5CO[C@@](Cn6cncn6)(c6ccc(F)cc6F)C5)cc4)CC3)cc2)c1=O` [Posaconazole], the biofilm formation amounted to 42%.

The compound `CN[C@@H]1[C@H](O[C@H]2[C@H](O[C@H]3[C@H](O)[C@@H](O)[C@H](NC(=N)N)[C@@H](O)[C@@H]3NC(=N)N)O[C@@H](C)[C@]2(O)CO)O[C@@H](CO)[C@H](O)[C@H]1O` [Dihydrostreptomycin sulfate] showed a biofilm formation of 45%.

`NCc1ccc(S(N)(=O)=O)cc1` [Mafenide hydrochloride] came in with a biofilm formation of 50%.

In the case of `CCc1oc2ccccc2c1C(=O)c1cc(Br)c(O)c(Br)c1` [Benzbromarone], the biofilm formation amounted to 81%.

`CC/C(=C(\c1ccccc1)c1ccc(OCCN(C)C)cc1)c1ccccc1` [Tamoxifen citrate] came in with a biofilm formation of 51%.

With `C#C[C@]1(O)CC[C@H]2[C@@H]3CCC4=C(CCC(=O)C4)[C@H]3CC[C@@]21C` [Norethynodrel], the biofilm formation was 79%.

On to `NS(=O)(=O)c1cc2c(cc1Cl)NC(CC1CCCC1)NS2(=O)=O` (configuration not stated) [Cyclopenthiazide], for which the biofilm formation was 62%.

Compound `CC(C)(C)NCC(O)c1cc(O)cc(O)c1` (configuration not stated) [Terbutaline hemisulfate] had a biofilm formation of 75%.

Compound `CC[N+](CC)(CC)CCOc1cccc(OCC[N+](CC)(CC)CC)c1OCC[N+](CC)(CC)CC` [Gallamine triethiodide] gave a biofilm formation of 81%.

Compound `CCOC(=O)[N-]c1c[n+](N2CCOCC2)no1` [Molsidomine] displayed a biofilm formation of 76%.

The compound `O=C(O)[C@H]1/C(=C/CO)O[C@@H]2CC(=O)N21` [Clavulanate potassium salt] displayed a biofilm formation of 49%.

The compound `O=C(OCCOCCO)c1ccccc1Nc1cccc(C(F)(F)F)c1` [Etofenamate] registered a biofilm formation of 76%.

Turning to `Cc1cnc(C(=O)O)c[n+]1[O-]` [Acipimox], the biofilm formation is 76%.

As to `COc1ccc(CN2CCN(C(c3ccc(F)cc3)c3ccc(F)cc3)CC2)c(OC)c1OC` [Lomerizine hydrochloride], the biofilm formation turned out to be 60%.

As for `COc1ccc(C(=O)c2ccccc2O)c(O)c1` [Dioxybenzone], the biofilm formation worked out at 55%.

For `CC(C)(C)NC[C@H](O)COc1ccccc1C1CCCC1` [Penbutolol sulfate], the biofilm formation amounted to 79%.

Turning to `Nc1nc2[nH]cc(CCc3ccc(C(=O)N[C@@H](CCC(=O)O)C(=O)O)cc3)c2c(=O)[nH]1` [Pemetrexed disodium], the biofilm formation was found to be 87%.

As to `CN(C)CCCN1c2ccccc2Sc2ccc(Cl)cc21` [Chlorpromazine hydrochloride], the biofilm formation is 74%.

`CCOc1ccccc1OC(c1ccccc1)C1CNCCO1` (configuration not stated) [Reboxetine mesylate] yielded a biofilm formation of 98%.

Take `C[C@@H]1C[C@H]2[C@@H]3C[C@H](F)C4=CC(=O)C=C[C@]4(C)[C@@]3(F)[C@@H](O)C[C@]2(C)[C@@]1(O)C(=O)COC(=O)C(C)(C)C` [Flumethasone pivalate]: the biofilm formation stood at 75%.

With `Nc1ccc(S(=O)(=O)Nc2ccccn2)cc1` [Sulfapyridine], the biofilm formation came out at 34%.

Consider `Nc1ccn([C@@H]2O[C@H](CO)[C@@H](O)[C@@H]2O)c(=O)n1` [Cytarabine], for which the biofilm formation came out at 83%.

Compound `COc1ccnc(C[S+]([O-])c2nc3cc(OC(F)F)ccc3[nH]2)c1OC` (configuration not stated) [Pantoprazole sodium] came in with a biofilm formation of 72%.

In turn, `CC(C)(C)c1ccc(C(O)CCCN2CCC(C(O)(c3ccccc3)c3ccccc3)CC2)cc1` (configuration not stated) [Terfenadine] gave a biofilm formation of 40%.

Take `CC(COc1ccccc1)NC(C)C(O)c1ccc(O)cc1` (configuration not stated) [Isoxsuprine hydrochloride]: the biofilm formation amounted to 75%.

`CCCCN1CCCCC1C(=O)Nc1c(C)cccc1C` (configuration not stated) [Bupivacaine hydrochloride] showed a biofilm formation of 65%.

In turn, `CCOC(=O)NNc1nncc2ccccc12` [Todralazine hydrochloride] displayed a biofilm formation of 105%.

Compound `CCN(CCO)CCCC(C)Nc1ccnc2cc(Cl)ccc12` (configuration not stated) [Hydroxychloroquine sulfate] showed a biofilm formation of 89%.

`COc1ccc(CC2c3cc(OC)c(OC)cc3CC[N+]2(C)CCC(=O)OCCCCCOC(=O)CC[N+]2(C)CCc3cc(OC)c(OC)cc3C2Cc2ccc(OC)c(OC)c2)cc1OC` (configuration not stated) [Atracurium besylate] registered a biofilm formation of 85%.

As to `CC(=O)[C@H]1CC[C@H]2[C@@H]3CC=C4C[C@@H](O)CC[C@]4(C)[C@H]3CC[C@]12C` [Pregnenolone], the biofilm formation was 72%.

As for `CN(C)[C@@H]1C(O)=C(C(N)=O)C(=O)[C@@]2(O)C(O)=C3C(=O)c4c(O)cccc4[C@@](C)(O)[C@H]3[C@H](O)[C@@H]12` [Oxytetracycline dihydrate], the biofilm formation turned out to be 17%.

Compound `CC/C(=C(/CC)c1ccc(O)cc1)c1ccc(O)cc1` [Diethylstilbestrol] registered a biofilm formation of 58%.

With `CC1=C(/C=C/C(C)=C/C=C/C(C)=C\C(=O)O)C(C)(C)CCC1` [Isotretinoin], the biofilm formation was 45%.

In turn, `CSc1ccc2c(c1)N(CCC1CCCCN1C)c1ccccc1S2` (configuration not stated) [Thioridazine hydrochloride] displayed a biofilm formation of 92%.

`Cc1cc(-c2ccccc2)nnc1NCCN1CCOCC1` [Minaprine dihydrochloride] showed a biofilm formation of 70%.

For `NC(N)=Nc1nc(CSCC/C(N)=N/S(N)(=O)=O)cs1` [Famotidine], the biofilm formation is 54%.

In turn, `COc1cc(-c2ccc(=O)[nH]n2)ccc1OC(F)F` [Zardaverine] came in with a biofilm formation of 76%.

`CCCCC1(COC(=O)CCC(=O)O)C(=O)N(c2ccccc2)N(c2ccccc2)C1=O` [Suxibuzone] returned a biofilm formation of 72%.

Turning to `COc1cc(NC(C)CCCN)c2ncccc2c1` (configuration not stated) [Primaquine diphosphate], the biofilm formation came out at 99%.

Consider `CCCCNc1c(C(=O)OCC)c(C)nc2c1cnn2CC` [Tracazolate hydrochloride], for which the biofilm formation is 85%.

The compound `C[C@]12CC[C@@H]3c4ccc(OS(=O)(=O)O)cc4CC[C@H]3[C@@H]1CCC2=O` [Estropipate] showed a biofilm formation of 52%.

In turn, `COc1cccc(OC)c1C(=O)N[C@@H]1C(=O)N2[C@@H]1SC(C)(C)[C@@H]2C(=O)O` [Methicillin sodium] displayed a biofilm formation of 57%.

`Cc1ccc(S(=O)(=O)NC(=O)NN2CCCCCC2)cc1` [Tolazamide]: the biofilm formation turned out to be 87%.

Regarding `CCOC(=O)c1ccc(N)cc1` [Benzocaine], the biofilm formation was determined as 95%.

In the case of `OC(CCCN1CCCCC1)(c1ccccc1)c1ccccc1` [Diphenidol hydrochloride], the biofilm formation was determined as 56%.

As for `CCN(CC)CCOC(=O)C(c1ccccc1)c1ccccc1` [Adiphenine hydrochloride], the biofilm formation turned out to be 87%.

In turn, `CCN(CC)CCNc1ccc(CO)c2sc3ccccc3c(=O)c12` [Hycanthone] returned a biofilm formation of 52%.

`O=C(COc1ccc(Cl)cc1)N1CCN(Cc2ccc3c(c2)OCO3)CC1` [Fipexide hydrochloride]: the biofilm formation is 56%.

Compound `CNC(C)CCC=C(C)C` (configuration not stated) [Isometheptene mucate] had a biofilm formation of 72%.

The compound `CN(Cc1cnc2nc(N)nc(N)c2n1)c1ccc(C(=O)N[C@@H](CCC(=O)O)C(=O)O)cc1` (racemic) [Amethopterin (R,S)] showed a biofilm formation of 66%.

`Cc1ccsc1/C=C/C1=NCCCN1C` [Morantel tartrate] showed a biofilm formation of 92%.

In the case of `CN(C)c1ccc(O)c2c1C[C@H]1C[C@H]3[C@H](N(C)C)C(O)=C(C(N)=O)C(=O)[C@@]3(O)C(O)=C1C2=O` [Minocycline hydrochloride], the biofilm formation was 18%.

As for `CC(C(=O)O)c1ccc(C(=O)c2ccccc2)s1` (configuration not stated) [Tiaprofenic acid], the biofilm formation was found to be 79%.

As for `CC(=O)N(CC(O)CN(C(C)=O)c1c(I)c(C(=O)NCC(O)CO)c(I)c(C(=O)NCC(O)CO)c1I)c1c(I)c(C(=O)NCC(O)CO)c(I)c(C(=O)NCC(O)CO)c1I` (configuration not stated) [Iodixanol], the biofilm formation came out at 50%.

On to `c1ccc(CN(CC2=NCCN2)c2ccccc2)cc1` [Antazoline hydrochloride], for which the biofilm formation was determined as 55%.

Turning to `CN(C)CC/C=C1/c2ccccc2COc2ccc(CC(=O)O)cc21` [Olopatadine hydrochloride], the biofilm formation is 62%.

In turn, `C=CCSCC1Nc2cc(Cl)c(S(N)(=O)=O)cc2S(=O)(=O)N1` (configuration not stated) [Althiazide] showed a biofilm formation of 98%.

The compound `CCCOc1ccc(C(=O)OCCN(CC)CC)cc1N` [Proparacaine hydrochloride] yielded a biofilm formation of 96%.

For the compound `CC(CN(C)C)C(C)(O)Cc1ccc(Cl)cc1` (configuration not stated) [Clobutinol hydrochloride], the biofilm formation stood at 78%.

`C[C@]1(Cn2ccnn2)[C@H](C(=O)O)N2C(=O)C[C@H]2S1(=O)=O` [Tazobactam] gave a biofilm formation of 54%.

`CC[C@@H](CO)NCCN[C@@H](CC)CO` [Ethambutol dihydrochloride] returned a biofilm formation of 75%.

Compound `CC(=O)OCC(=O)[C@@]1(OC(C)=O)[C@@H](C)C[C@H]2[C@@H]3C[C@H](F)C4=CC(=O)C=C[C@]4(C)[C@@]3(F)[C@@H](O)C[C@@]21C` [Diflorasone Diacetate] came in with a biofilm formation of 91%.

On to `C=CCOC(Cn1ccnc1)c1ccc(Cl)cc1Cl` (configuration not stated) [Enilconazole], for which the biofilm formation was 95%.

For the compound `N=C(N)NCCN1CCCCCCC1` [Guanethidine sulfate], the biofilm formation is 83%.

`CC(CN(C)C)CN1c2ccccc2Sc2ccccc21` (configuration not stated) [Trimeprazine tartrate] registered a biofilm formation of 66%.

The compound `CC1(C)[C@@H](OC(=O)CCC(=O)O)CC[C@]2(C)[C@H]3C(=O)C=C4[C@@H]5C[C@@](C)(C(=O)O)CC[C@]5(C)CC[C@@]4(C)[C@]3(C)CC[C@@H]12` [Carbenoxolone disodium salt] showed a biofilm formation of 70%.

In turn, `CO/N=C(\C(=O)N[C@@H]1C(=O)N2C(C(=O)OC(C)OC(C)=O)=C(COC(N)=O)CS[C@H]12)c1ccco1` (some centres not stated) [Cefuroxime axetil] came in with a biofilm formation of 94%.

Compound `COc1ccccc1OCC(O)COC(N)=O` (configuration not stated) [Methocarbamol] displayed a biofilm formation of 58%.
